Measured values taken from article PMC8935233.
These are yes or no findings as the source states them, for the method shown. In cells and extracts the contact can be indirect. These calls come from enrichment with a bait or labelling near it, and not all partners need be listed.

By UniProt entry, the sequences of proteins in these tests, tags left out.
UniProt Q92786: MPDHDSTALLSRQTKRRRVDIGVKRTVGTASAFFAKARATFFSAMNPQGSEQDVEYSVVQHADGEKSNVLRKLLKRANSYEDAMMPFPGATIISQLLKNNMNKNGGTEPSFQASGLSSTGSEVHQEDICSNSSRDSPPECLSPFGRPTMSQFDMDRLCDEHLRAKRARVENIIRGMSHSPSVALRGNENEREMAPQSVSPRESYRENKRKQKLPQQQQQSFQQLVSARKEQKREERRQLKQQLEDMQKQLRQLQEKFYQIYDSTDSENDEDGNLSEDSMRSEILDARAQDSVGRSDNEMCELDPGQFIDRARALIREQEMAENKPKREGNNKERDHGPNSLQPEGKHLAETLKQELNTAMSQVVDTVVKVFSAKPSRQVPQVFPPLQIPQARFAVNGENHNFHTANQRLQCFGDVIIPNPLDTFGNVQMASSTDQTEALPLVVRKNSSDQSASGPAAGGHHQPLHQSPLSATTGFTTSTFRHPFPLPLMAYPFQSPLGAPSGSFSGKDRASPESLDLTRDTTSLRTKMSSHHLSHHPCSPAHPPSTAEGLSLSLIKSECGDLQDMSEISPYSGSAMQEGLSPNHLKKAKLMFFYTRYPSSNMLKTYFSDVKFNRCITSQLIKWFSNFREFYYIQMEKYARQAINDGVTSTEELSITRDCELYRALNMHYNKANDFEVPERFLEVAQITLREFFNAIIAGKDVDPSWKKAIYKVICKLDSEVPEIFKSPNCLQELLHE

Tests used:
[1] = target: PROX1 (Prospero-related homeobox 1) (human (endogenous in MDA-MB-231)) (UniProt Q92786); test: affinity purification with mass spectrometry; IP of PROX1 from MDA-MB-231 lysate and from lysate of PROX1-overexpressing MCF-7 (NP-40 lysis buffer: 20 mM Tris-HCl, 150 mM NaCl, 0.5% NP-40, 20% glycerol; protein A/G magnetic beads); eluates on 10% SDS-PAGE, trypsin, Orbitrap Elite LC-MS/MS
[2] = target: PROX1 (Prospero-related homeobox 1), overexpressed in MCF-7 (human) (UniProt Q92786); test: as above

- binding [1]: binds
- binding [2]: binds
Substance: Heterogeneous ribonucleoprotein K (hnRNPK) (from UniProt P61978 1-463)
